Source: PubChem BioAssay (NCATS)
The inconclusive results got no clear call from the source; some entries with a clear call stand among them for comparison. Potencies beside an inconclusive call are fits to weak or partial responses and may not hold up. Calls of active or inactive are those of the source. Calls follow the shape of the dose curve; as a rule, active = well fitted cell-killing curve with a large enough effect; inconclusive = small, poorly fitted or top-dose-only effect, or effect the other way; inactive = no such curve, though single readings can be large or run the other way.

Assay: Quantitative High-Throughput drug screen in 47 multiple myeloma cell lines against the NCATS MIPE library collection: U266_ATCC cell viability assay (AID 1919864); also: nearly all actives have a fitted effect of over 35% in size;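 as to viability (% of DMSO control): 0% = media-only wells without cells and 100% = DMSO-only wells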
Conditions: U266 myeloma viability, CellTiter-Glo ATP luminescence, 48 h; series mostly up to 45.8 µM; viability (% of DMSO control): at the top concentration
In short: (§1)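 MIPE 4.0 approved/investigational drugs; 500 cells/well; 48 h 37 °C humidified 5% CO2; CTG luminescence readout; DMSO = 100%, media = 0% viability.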
Potency is read from the fitted curve at half-maximal effect.

Q: For `CC(C)NCC(O)COc1ccc(COCCOC(C)C)cc1` (centres undefined), which “viability (% of DMSO control)” value is on record?
A: inactive: 134%

Q: Which Potency does the source give for `OCCN(CCO)c1nc(N2CCCCC2)c2nc(N(CCO)CCO)nc(N3CCCCC3)c2n1` here?
A: active: 23.5 µM

Q: For `CN1CCN(Cc2ccc(NC(=O)Nc3ccc(Oc4cc(NC(=O)C5CC5)ncn4)cc3)cc2C(F)(F)F)CC1`, which Potency is on record?
A: active: 0.418 µM

Q: Which Potency does the source give for `C=CCc1ccc(O)c(-c2ccc(O)c(CC=C)c2)c1` here?
A: active: 16.6 µM

Q: For `O=C(C1CC1)N1CC[C@@H](Cn2c(-c3ccc(-c4ccc5occc5c4)cc3)nc3cnccc32)C1`, which Potency is on record?
A: inconclusive: 0.132 µM [rising, full curve, poor fit]

Q: With `O=c1c(O)c(-c2cc(O)c(O)c(O)c2)oc2cc(O)cc(O)c12` as the compound, how does the Potency read?
A: inconclusive: 26.4 µM [cytotoxic, single point]

Q: For `COC1CCC(N(C(=O)C2CCC(C)CC2)c2cc(C3=CCCCC3)sc2C(=O)O)CC1` (centres undefined), which “viability (% of DMSO control)” value is on record?
A: inactive: 115%

Q: Which “viability (% of DMSO control)” value does the source give for `Cc1onc(-c2ccccc2)c1C(=O)N[C@@H]1C(=O)N2[C@@H](C(=O)O)C(C)(C)S[C@@H]12` here?
A: inactive: 131%

Q: With `NC(=O)c1ncn([C@@H]2O[C@H](CO)[C@@H](O)[C@@H]2O)c1N` as the compound, how does the “viability (% of DMSO control)” value read?
A: inactive: 138%

Q: With `N#Cc1cc(NC(=O)Nc2nnc(-c3ccncc3)s2)ccc1-c1cn[nH]c1` as the compound, how does the Potency read?
A: inconclusive: 18.7 µM [cytotoxic, partial curve, poor fit]

Q: Which Potency does the source give for `CN(C)c1ccc(O)c2c1C[C@H]1C[C@H]3[C@H](N(C)C)C(=O)C(C(N)=O)=C(O)[C@@]3(O)C(=O)C1=C2O` here?
A: active: 5.9 µM

Q: Which Potency does the source give for `CCOC(=O)N[C@@H]1CC[C@@H]2[C@@H](C1)C[C@H]1C(=O)O[C@H](C)[C@H]1[C@@H]2C=Cc1ccc(-c2cccc(F)c2)cn1` here?
A: inconclusive: 33.2 µM [cytotoxic, single point]

Q: For `CC[C@H](C=C[C@@H](C)[C@H]1CC[C@H]2[C@@H]3CC=C4C[C@@H](O)CC[C@]4(C)[C@@H]3CC[C@]12C)C(C)C`, which “viability (% of DMSO control)” value is on record?
A: inactive: 128% [at 23.2 µM]

Q: Which “viability (% of DMSO control)” value does the source give for `N[C@@H](Cc1cc(I)c(Oc2cc(I)c(O)c(I)c2)c(I)c1)C(=O)O` here?
A: inactive: 134%

Q: Which Potency does the source give for `CCC(=O)N[C@H]1CC[C@H](C(=O)N(C)c2ccc(-c3nc4ccccc4o3)cc2)C1` here?
A: inconclusive: 4.18 µM [cytotoxic, full curve]

Q: With `COc1ccccc1OCCNCC(O)COc1cccc2[nH]c3ccccc3c12` (centres undefined) as the compound, how does the Potency read?
A: inconclusive: 18.7 µM [cytotoxic, partial curve, poor fit]

Q: For `CC[C@H]1OC(=O)[C@H](C)[C@@H](O[C@H]2C[C@@](C)(OC)[C@@H](O)[C@H](C)O2)[C@H](C)[C@@H](O[C@@H]2O[C@H](C)C[C@H](N(C)C)[C@@H]2O)[C@](C)(OC)C[C@@H](C)C(=O)[C@H](C)[C@@H](O)[C@]1(C)O`, which Potency is on record?
A: inconclusive: 26.4 µM [cytotoxic, single point]

Q: Which Potency does the source give for `CCCCCCCCCC(=O)N[C@@H](Cc1c[nH]c2ccccc12)C(=O)N[C@H](CC(N)=O)C(=O)N[C@@H](CC(=O)O)C(=O)N[C@@H]1C(=O)NCC(=O)N[C@@H](CCCN)C(=O)N[C@@H](CC(=O)O)C(=O)N[C@H](C)C(=O)N[C@@H](CC(=O)O)C(=O)NCC(=O)N[C@H](CO)C(=O)N[C@@H]([C@@H](C)CC(=O)O)C(=O)N[C@@H](CC(=O)c2ccccc2N)C(=O)O[C@@H]1C` here?
A: inconclusive: 3.32 µM [rising, full curve, poor fit]

Q: Which “viability (% of DMSO control)” value does the source give for `CCOC(=O)Nc1ccc(NCc2ccc(F)cc2)nc1N` here?
A: inactive: 126%

Q: Which Potency does the source give for `CCn1cc(C(=O)O)c(=O)c2cc(F)c(N3CCNCC3)nc21` here?
A: inconclusive: 0.0017 µM [rising, full curve, poor fit]

Q: With `CCC[C@@H](NC(=O)[C@@H]1[C@H]2CCC[C@@H]2CN1C(=O)[C@@H](NC(=O)[C@@H](NC(=O)c1cnccn1)C1CCCCC1)C(C)(C)C)C(=O)C(=O)NC1CC1` as the compound, how does the Potency read?
A: inconclusive: 33.2 µM [cytotoxic, single point]

Q: For `CNc1nc(Nc2ccc(C(=O)N3CCOCC3)cc2OC)ncc1Cl`, which “viability (% of DMSO control)” value is on record?
A: inactive: 127%

Q: With `O=c1[nH]c(=O)n(C2CCCO2)cc1F` (centres undefined) as the compound, how does the Potency read?
A: inconclusive: 7.62 µM [cytotoxic, full curve, poor fit]

Q: With `OC[C@H]1O[C@@H](Oc2cc(O)cc(C=Cc3ccc(O)cc3)c2)[C@H](O)[C@@H](O)[C@H]1O` as the compound, how does the “viability (% of DMSO control)” value read?
A: inactive: 130%

Q: For `CN(C)CCOC(c1ccccc1)c1ccccc1`, which Potency is on record?
A: inconclusive: 23.5 µM [cytotoxic, single point]

Assay: Quantitative High-Throughput drug screen in 47 multiple myeloma cell lines against the NCATS MIPE library collection: XG6_PLB cell viability assay (AID 1919865); also: nearly all actives have a fitted effect of over 40% in size
Conditions: XG6 myeloma viability, CellTiter-Glo ATP luminescence, 48 h; viability (% of control): at 45.8 µM (top of the series)
In short: as §1

Q: Which Potency does the source give for `O=C(C1CC1)N1CC[C@@H](Cn2c(-c3ccc(-c4ccc5occc5c4)cc3)nc3cnccc32)C1` here?
A: inconclusive: 20.9 µM [cytotoxic, partial curve, poor fit]

Q: With `CCOC(CN1C(=O)[C@](CC(=O)Nc2ccc(C)cc2)(NC(=O)Nc2ccc(C)cc2)c2ccccc21)OCC` as the compound, how does the Potency read?
A: inconclusive: 13.2 µM [cytotoxic, partial curve]

Q: For `NC(=O)c1ncn([C@@H]2O[C@H](CO)[C@@H](O)[C@@H]2O)c1N`, which “viability (% of control)” value is on record?
A: inactive: 128%

Q: Which “viability (% of control)” value does the source give for `CO[C@H]1/C=C\O[C@@]2(C)Oc3c(C)c(O)c4c(O)c(c5c(nc6cc(C)ccn65)c4c3C2=O)NC(=O)C(C)=CC=C[C@H](C)[C@H](O)[C@@H](C)[C@@H](O)[C@@H](C)[C@H](OC(C)=O)[C@H]1C` here?
A: inactive: 115%

Q: With `N#Cc1cc(NC(=O)Nc2nnc(-c3ccncc3)s2)ccc1-c1cn[nH]c1` as the compound, how does the Potency read?
A: inconclusive: 0.662 µM [rising, full curve, poor fit]

Q: With `CN(C)c1ccc(O)c2c1C[C@H]1C[C@H]3[C@H](N(C)C)C(=O)C(C(N)=O)=C(O)[C@@]3(O)C(=O)C1=C2O` as the compound, how does the Potency read?
A: inconclusive: 14.8 µM [cytotoxic, partial curve, poor fit]

Q: With `C=C[C@@H]1CN2CCC1C[C@@H]2C(O)c1ccnc2ccc(OC)cc12` (some centres undefined) as the compound, how does the Potency read?
A: inconclusive: 6.62 µM [cytotoxic, partial curve, poor fit]

Q: For `CCOC(=O)N[C@@H]1CC[C@@H]2[C@@H](C1)C[C@H]1C(=O)O[C@H](C)[C@H]1[C@@H]2C=Cc1ccc(-c2cccc(F)c2)cn1`, which Potency is on record?
A: inconclusive: 18.7 µM [cytotoxic, partial curve, poor fit]

Q: For `N=C(N=C(N)N)N1CCOCC1`, which Potency is on record?
A: inconclusive: 11.8 µM [cytotoxic, single point]

Q: Which “viability (% of control)” value does the source give for `O=C(NC1CCOCC1)c1ccc(-c2cc(-c3cn[nH]c3-c3ccccn3)ccn2)cc1` here?
A: inactive: 118%

Q: With `N[C@@H](Cc1cc(I)c(Oc2cc(I)c(O)c(I)c2)c(I)c1)C(=O)O` as the compound, how does the “viability (% of control)” value read?
A: inactive: 112%

Q: For `CCC(=O)N[C@H]1CC[C@H](C(=O)N(C)c2ccc(-c3nc4ccccc4o3)cc2)C1`, which Potency is on record?
A: active: 8.33 µM

Q: With `COc1ccccc1OCCNCC(O)COc1cccc2[nH]c3ccccc3c12` (centres undefined) as the compound, how does the Potency read?
A: inconclusive: 33.2 µM [cytotoxic, single point]

Q: With `CC1(C)CCC(C)(C)c2cc(NC(=O)c3ccc(C(=O)O)cc3)ccc21` as the compound, how does the Potency read?
A: active: 5.26 µM

Q: Which “viability (% of control)” value does the source give for `CCCCCCCCCC(=O)N[C@@H](Cc1c[nH]c2ccccc12)C(=O)N[C@H](CC(N)=O)C(=O)N[C@@H](CC(=O)O)C(=O)N[C@@H]1C(=O)NCC(=O)N[C@@H](CCCN)C(=O)N[C@@H](CC(=O)O)C(=O)N[C@H](C)C(=O)N[C@@H](CC(=O)O)C(=O)NCC(=O)N[C@H](CO)C(=O)N[C@@H]([C@@H](C)CC(=O)O)C(=O)N[C@@H](CC(=O)c2ccccc2N)C(=O)O[C@@H]1C` here?
A: inactive: 83.5%

Q: With `CCC[C@@H](NC(=O)[C@@H]1[C@H]2CCC[C@@H]2CN1C(=O)[C@@H](NC(=O)[C@@H](NC(=O)c1cnccn1)C1CCCCC1)C(C)(C)C)C(=O)C(=O)NC1CC1` as the compound, how does the Potency read?
A: inconclusive: 18.7 µM [cytotoxic, partial curve, poor fit]

Q: For `CNc1nc(Nc2ccc(C(=O)N3CCOCC3)cc2OC)ncc1Cl`, which Potency is on record?
A: inconclusive: 20.9 µM [cytotoxic, partial curve, poor fit]

Q: Which Potency does the source give for `CCN(CC)CCOc1ccc(C(=C(Cl)c2ccccc2)c2ccccc2)cc1` here?
A: inconclusive: 29.6 µM [cytotoxic, single point]

Q: Which Potency does the source give for `O=c1[nH]c(=O)n(C2CCCO2)cc1F` (centres undefined) here?
A: inconclusive: 0.003 µM [rising, full curve, poor fit]

Q: For `CN[C@@H](C)C(=O)N[C@H]1CN(C(=O)CC(C)C)CC[C@H]2CC[C@@H](C(=O)NC(c3ccccc3)c3ccccc3)N2C1=O`, which Potency is on record?
A: active: 1.32 µM

Q: With `CN(C)c1ccc(C2Nc3ccc4ccccc4c3C3=C2C(=O)CC(C)(C)C3)cc1Br` (centres undefined) as the compound, how does the Potency read?
A: inconclusive: 1.66 µM [cytotoxic, full curve, poor fit]

Q: For `OC[C@H]1O[C@@H](Oc2cc(O)cc(C=Cc3ccc(O)cc3)c2)[C@H](O)[C@@H](O)[C@H]1O`, which Potency is on record?
A: inconclusive: 37.2 µM [cytotoxic, single point]

Q: Which Potency does the source give for `CN(C)CCOC(c1ccccc1)c1ccccc1` here?
A: inconclusive: 4.69 µM [cytotoxic, full curve]

Q: Which “viability (% of control)” value does the source give for `CN(CCOc1ccc(CC2SC(=O)NC2=O)cc1)c1ccccn1` (centres undefined) here?
A: inactive: 103%
